From PubChem BioAssay AID1347076 (National Center for Advancing Translational Sciences (NCATS), 2019)
The campaign covered roughly 400,000 compounds. About 13,000 (3.2%) were called active. This list was built around the results that the source calls inconclusive (neither active nor inactive); the mix of calls is not that of the screen. Calls come from the whole dose curve; as a rule, active = well fitted cell-killing curve with a large enough effect; inconclusive = small, poorly fitted or top-dose-only effect, or effect the other way; inactive = flat fitted curve, though single readings scatter. Potencies beside an inconclusive call are fits to weak or partial responses and may not hold up.

Test: qHTS assay for MDR1-selective chemotherapeutics: Primary screen using the drug-selected MDR subline cells KB-V1; note: nearly all actives have a fitted effect of over 60% in size
Conditions: KB-V1 MDR cells viability, CellTiter-Glo, 72 h; activity change, negative = cytotoxicity: at 46.1 µM (top of the series)
Method in brief: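 Potencies derive from concentration-effect curves fitted to normalized luminescence (CellTiter-Glo) of KB-V1 cells treated for 72 h at 37 degrees C in phenol-red-free DMEM containing 10% FBS.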
% is set by controls: 0 for no effect and ±100 for the full control effect; potency is the fitted concentration of half-maximal effect.

Row | SMILES | Potency | activity change, negative = cytotoxicity
1 | O=C(c1cc(Cl)c(=O)n(Cc2ccccc2)c1)N1CCOCC1 | inconclusive: 23.1 µM [cytotoxic, partial curve, poor fit] | 
2 | O=C(CCc1nc(-c2cccs2)no1)Nc1cnc2ccccc2c1 | inconclusive: 0.082 µM [rising, full curve] | 
3 | CCc1nc2ccc(C(=O)NCCc3ccccc3OC)cc2nc1CC | inactive | 
4 | Cc1cc(NC(=O)c2ccc(F)cc2F)n(-c2nc3ccccc3[nH]2)n1 |  | inactive: -3.9%
5 | COc1ccc(C2=Nn3c(nnc3-c3cccnc3)SC2)cc1OC | inconclusive: 9.2 µM [cytotoxic, partial curve, poor fit] | 
6 | COc1ccc(NC(=O)COC(=O)Cc2ccccc2[N+](=O)[O-])cc1OC |  | inactive: 5.39%
7 | COc1ccccc1Oc1ccc(S(=O)(=O)Nc2cccnc2)cc1 | active: 2.59 µM | 
8 | COc1ccc(-c2ccc(CN3C(CC(C)C)C(=O)N(Cc4cn(CCC5OCCCO5)nn4)CCS3(=O)=O)cc2)cc1OC (centres undefined) |  | inactive: -13%
9 | O=C(Cc1cccc2ccccc12)NCCOc1ccccc1F | inconclusive: 29.1 µM [cytotoxic, single point] | 
10 | Nc1cccnc1S(=O)(=O)c1ccccc1 | inconclusive: 25.9 µM [rising, single point] | 
11 | O=C(Nc1cccc(F)c1)NC1(C(=O)NCC2CCCO2)CCCCC1 (centres undefined) | inconclusive: 29.1 µM [rising, partial curve, poor fit] | 
12 | Cc1cc(C)cc(C(=O)NCC(=O)OCC(=O)NC2CCCc3ccccc32)c1 (centres undefined) |  | inactive: 0%
13 | Oc1ccc(Oc2ccc(Oc3ccc(O)cc3)cc2)cc1 | inconclusive: 29.1 µM [rising, single point] | 
14 | S=C1NC(C23CC4CC(CC(C4)C2)C3)=CC(c2ccc3c(c2)OCO3)N1 (centres undefined) | inconclusive: 18.4 µM [cytotoxic, single point] | 
15 | C=CCn1c(SCC(=O)Nc2ccc(F)cc2F)nnc1-c1cnccn1 |  | inactive: -18.8%
16 | Cc1ccc(S(=O)(=O)N2CCCCC2)cc1NC(=O)Cc1c[nH]c2ccccc12 | inconclusive: 18.4 µM [cytotoxic, partial curve] | 
17 | O=C(N/N=C/c1cccc2ccccc12)c1ccncc1 | inconclusive: 29.1 µM [rising, single point] | 
18 | Nc1ccc(C23CC4CC(CC(O)(C4)C2)C3)cc1 | inconclusive: 32.6 µM [rising, single point] | 
19 | COc1ccc(CNC(=O)CSc2nnnn2Cc2ccccc2)cc1 | inconclusive: 18.4 µM [cytotoxic, single point] | 
20 | CCOC(=O)N1CCN(C(=O)CN(c2ccc(OCc3ccccc3)cc2)S(C)(=O)=O)CC1 | active: 5.17 µM | 
21 | O=C(NC1CCCCC1)C(c1ccnc2ccccc12)n1c(=O)c(-c2ccco2)nc2ccccc21 (centres undefined) |  | inactive: -6.4%
22 | CC(=O)c1ccc(NC(=O)C(C)NCc2ccccc2Cl)cc1 (centres undefined) |  | inactive: -17.1%
23 | O=C1[C@H](Cc2ccccc2)NCC=CC[C@H](c2ccc(Cl)cc2)N1Cc1ccccc1 | inconclusive: 29.1 µM [cytotoxic, single point] | 

Row | SMILES | Potency | activity change, negative = cytotoxicity
24 | CCCCc1c(O)nc(SCC(=O)NCC2CCCO2)[nH]c1=O (centres undefined) | inconclusive: 29.1 µM [rising, single point] | 
25 | CN(C(=O)CCc1nc(-c2ccccc2F)no1)c1ccc(Cl)cc1 |  | inactive: -26.2%
26 | Cc1ccc(OCC(=O)Oc2ccc(C(C)C)cc2)cc1 |  | inactive: 0.768%
27 | Cc1ccc(NC(=O)c2nc(S(C)(=O)=O)ncc2N(Cc2ccc(C(C)(C)C)cc2)Cc2ccco2)cc1C |  | inactive: -0.6%
28 | CN(C)C1=NCCN1CCCC1CCCCC1 |  | inactive: -21.3%
29 | O=C(/C=C/c1cccc(Cl)c1)Nc1ncccn1 | inconclusive: 14.6 µM [rising, partial curve] | 
30 | Cc1cc(Cl)ccc1NC(=S)N1CCN(Cc2ccccc2)CC1 | active: 23.1 µM | 
31 | CC(=O)NCCN=C(C)c1sc2ccccc2c1O | inconclusive: 0.651 µM [rising, partial curve, poor fit] | 
32 | O=[N+]([O-])c1cccc(-c2cc3ccccc3[nH]2)c1 |  | inactive: 5.15%
33 | CCOC(=O)c1cc([N+](=O)[O-])cc([N+](=O)[O-])c1Sc1ncnc2nc[nH]c12 | inconclusive: 4.11 µM [cytotoxic, full curve] | 
34 | CCCC(O)c1nc2ccccc2n1CCCOc1ccc(Cl)cc1 (centres undefined) |  | inactive: -2.58%
35 | CCOc1ccc(CCNC(=O)c2cccc(S(=O)(=O)N3CCCC3)c2)cc1OCC | inconclusive: 8.2 µM [cytotoxic, partial curve] | 
36 | COc1ccc(CCNC(=O)c2ccc(-c3ccc([N+](=O)[O-])cc3)o2)cc1OC | inconclusive: 4.61 µM [cytotoxic, full curve] | 
37 | O=C(COC(=O)c1cccnc1Cl)NCc1ccc(F)cc1 | inconclusive: 9.2 µM [rising, partial curve] | 
38 | O=[N+]([O-])c1ccc(NCCOc2ccccc2Cl)nc1 | inconclusive: 18.4 µM [cytotoxic, single point] | 
39 | CCc1sc(C(=O)Nc2nc(-c3ccccn3)cs2)cc1C | inconclusive: 0.164 µM [cytotoxic, single point] | 
40 | CCn1cc(C(=O)OCC(=O)Nc2ccc(C)c(Cl)c2)c(=O)c2ccc(C)nc21 | inconclusive: 29.1 µM [rising, single point] | 
41 | CC(=O)c1cccc(Nc2nc(-c3cccnc3)cs2)c1 | inconclusive: 23.1 µM [cytotoxic, partial curve, poor fit] | 
42 | O=C1CSCN1c1ccc(Cl)c(Cl)c1 | inconclusive: 29.1 µM [rising, single point] | 
43 | CC(=O)c1cccc(NC(=O)c2cccc(N3C(=O)c4ccccc4C3=O)c2)c1 |  | inactive: 8.52%
44 | CCn1c(SCC(=O)N/N=C/c2ccc(C)o2)nnc1-c1ccc(C)cc1 | inconclusive: 18.4 µM [cytotoxic, partial curve, poor fit] | 
45 | O=C(COc1ccc(Cl)cc1Cl)NCCCN1CCOCC1 | inconclusive: 20.6 µM [cytotoxic, partial curve, poor fit] | 
46 | Cc1cccnc1C(NC(=O)C1CCN(Cc2cn(C)c3ccccc23)CC1)c1ccc(Cl)cc1 (centres undefined) | inconclusive: 16.4 µM [cytotoxic, partial curve, poor fit] | 

Reformatted: entries from further up.
O=C(CCc1nc(-c2cccs2)no1)Nc1cnc2ccccc2c1
  Potency: inconclusive: 0.082 µM [rising, full curve]
CCc1nc2ccc(C(=O)NCCc3ccccc3OC)cc2nc1CC
  Potency: inactive
Cc1cc(NC(=O)c2ccc(F)cc2F)n(-c2nc3ccccc3[nH]2)n1
  activity change, negative = cytotoxicity: inactive: -3.9%
COc1ccc(C2=Nn3c(nnc3-c3cccnc3)SC2)cc1OC
  Potency: inconclusive: 9.2 µM [cytotoxic, partial curve, poor fit]

Going on with the list:

Row | SMILES | Potency | activity change, negative = cytotoxicity
47 | O=C(c1ccc(O)cc1)c1ccc(C(=O)c2ccc(O)cc2)cc1 | inconclusive: 20.6 µM [cytotoxic, single point] | 
48 | Cc1ccc(CN2CCC(CNC(=O)c3cnn(-c4ccccc4Cl)c3C3CCN(C(=O)OC(C)(C)C)CC3)CC2)cc1 | inconclusive: 20.6 µM [cytotoxic, single point] | 
49 | CCNC(=O)NC(=O)CSc1ccc(S(=O)(=O)N2CCOCC2)cn1 | inconclusive: 23.1 µM [rising, single point] | 
50 | O=C(NC1CCN(Cc2ccccc2)CC1)c1cc(S(=O)(=O)N2CCOCC2)ccc1Cl |  | inactive: -11.8%
51 | O=C(CN1CCOc2ccccc21)NC1CCCCCCC1 | inconclusive: 1.16 µM [cytotoxic, partial curve] | 
52 | C#CCOCCOCCOCCNc1nc(N2CCN(C(=O)CCCCCCCCCCNC(=O)[C@@H](CCSC)n3cc(CCO)nn3)CC2)nc(N2CCN(C(=O)CCCCCCCCCCNC(=O)[C@H]([C@@H](C)CC)n3cc(CCCCN=C(N)N)nn3)CC2)n1 | inconclusive: 14.6 µM [cytotoxic, single point] | 
53 | Cc1nn2c(-c3ccc(F)cc3)ccnc2c1Br | inconclusive: 20.6 µM [cytotoxic, single point] | 
54 | O=[N+]([O-])c1ccc(-c2nnc(-c3ccccc3)c(NCCCO)n2)cc1 | inconclusive: 10.3 µM [cytotoxic, partial curve] | 
55 | Cc1nn(C)cc1/C=C/C(=O)c1cccs1 | inconclusive: 18.4 µM [cytotoxic, single point] | 
56 | COc1ccc(C(=O)CSc2ccccc2C(=O)O)cc1 | inconclusive: 29.1 µM [rising, single point] | 
57 | O=C(Nc1nccs1)C1CC(=O)N(Cc2ccco2)C1 (centres undefined) |  | inactive: -0.63%
58 | O=C(COc1cc2oc(=O)c3c(c2cc1Cl)CCC3)Nc1ccc(CN2CCOCC2)cc1 |  | inconclusive: 93.4%
59 | C=CCn1c(SCC(=O)Nc2cc(C)on2)nc2ccccc21 |  | inactive: -27.2%
60 | CCOc1ccc(S(=O)(=O)Nc2cc(S(=O)(=O)N(CC)CC)ccc2N2CCCC2)cc1 | active: 2.59 µM | 
61 | COc1ccc(NC(=O)N(C2CCCCC2)C2CCN(C(C)C)CC2)c(OC)c1 | active: 14.6 µM | 
62 | CCCN(CCC)CCCNC(=S)Nc1ccc2nc(N3CCN(C)CC3)cc(C)c2c1 |  | inactive: 8.05%
63 | COc1ccc(SC2=C[C@@]3(O)CC[C@@H](O)[C@@](Sc4ccc(OC)cc4)(C2=O)[C@H]3O)cc1 | inconclusive: 7.31 µM [cytotoxic, partial curve, poor fit] | 
64 | COc1ccc(CCNC2=C(Cl)C(=O)N(CCc3ccccc3)C2=O)cc1OC | inconclusive: 18.4 µM [cytotoxic, single point] | 
65 | Cc1ccc(S(=O)(=O)N2C[C@H]3C(=O)C[C@@H](c4ccccc4)N(S(=O)(=O)c4cccc(C)c4)[C@H]3C[C@H]2c2ccccc2)cc1 |  | inactive: -17.9%
66 | Cc1cccc2cc(CN(Cc3nnnn3C3CCCCC3)C3CCCC3)c3nnnn3c12 | active: 20.6 µM | 
67 | O=C(NCc1ccc2c(c1)OCO2)C1CCCN1S(=O)(=O)c1ccc(Cl)cc1 (centres undefined) | inconclusive: 8.2 µM [cytotoxic, partial curve] | 
68 | CC(C)OCCCNC(=O)c1cc2c(=O)n(C)c3ccccc3c2n1C | inconclusive: 29.1 µM [cytotoxic, single point] | 
69 | CCc1ccc(CN2C(=O)c3ccccc3C2C(=O)NCC2CCCO2)cc1 (centres undefined) | inconclusive: 2.59 µM [cytotoxic, partial curve] | 
